In paper PMC2770259:
Results are given in words; binding and its absence hold for the method and conditions named. In cells and extracts the contact can be indirect. These calls come from enrichment with a bait or labelling near it, and not all partners need be listed. No binding means not detected with the bait. Tags and fused reporters may be left off the sequences shown.

By UniProt entry, the sequences of proteins in these tests, tags left out.
UniProt Q9UT79: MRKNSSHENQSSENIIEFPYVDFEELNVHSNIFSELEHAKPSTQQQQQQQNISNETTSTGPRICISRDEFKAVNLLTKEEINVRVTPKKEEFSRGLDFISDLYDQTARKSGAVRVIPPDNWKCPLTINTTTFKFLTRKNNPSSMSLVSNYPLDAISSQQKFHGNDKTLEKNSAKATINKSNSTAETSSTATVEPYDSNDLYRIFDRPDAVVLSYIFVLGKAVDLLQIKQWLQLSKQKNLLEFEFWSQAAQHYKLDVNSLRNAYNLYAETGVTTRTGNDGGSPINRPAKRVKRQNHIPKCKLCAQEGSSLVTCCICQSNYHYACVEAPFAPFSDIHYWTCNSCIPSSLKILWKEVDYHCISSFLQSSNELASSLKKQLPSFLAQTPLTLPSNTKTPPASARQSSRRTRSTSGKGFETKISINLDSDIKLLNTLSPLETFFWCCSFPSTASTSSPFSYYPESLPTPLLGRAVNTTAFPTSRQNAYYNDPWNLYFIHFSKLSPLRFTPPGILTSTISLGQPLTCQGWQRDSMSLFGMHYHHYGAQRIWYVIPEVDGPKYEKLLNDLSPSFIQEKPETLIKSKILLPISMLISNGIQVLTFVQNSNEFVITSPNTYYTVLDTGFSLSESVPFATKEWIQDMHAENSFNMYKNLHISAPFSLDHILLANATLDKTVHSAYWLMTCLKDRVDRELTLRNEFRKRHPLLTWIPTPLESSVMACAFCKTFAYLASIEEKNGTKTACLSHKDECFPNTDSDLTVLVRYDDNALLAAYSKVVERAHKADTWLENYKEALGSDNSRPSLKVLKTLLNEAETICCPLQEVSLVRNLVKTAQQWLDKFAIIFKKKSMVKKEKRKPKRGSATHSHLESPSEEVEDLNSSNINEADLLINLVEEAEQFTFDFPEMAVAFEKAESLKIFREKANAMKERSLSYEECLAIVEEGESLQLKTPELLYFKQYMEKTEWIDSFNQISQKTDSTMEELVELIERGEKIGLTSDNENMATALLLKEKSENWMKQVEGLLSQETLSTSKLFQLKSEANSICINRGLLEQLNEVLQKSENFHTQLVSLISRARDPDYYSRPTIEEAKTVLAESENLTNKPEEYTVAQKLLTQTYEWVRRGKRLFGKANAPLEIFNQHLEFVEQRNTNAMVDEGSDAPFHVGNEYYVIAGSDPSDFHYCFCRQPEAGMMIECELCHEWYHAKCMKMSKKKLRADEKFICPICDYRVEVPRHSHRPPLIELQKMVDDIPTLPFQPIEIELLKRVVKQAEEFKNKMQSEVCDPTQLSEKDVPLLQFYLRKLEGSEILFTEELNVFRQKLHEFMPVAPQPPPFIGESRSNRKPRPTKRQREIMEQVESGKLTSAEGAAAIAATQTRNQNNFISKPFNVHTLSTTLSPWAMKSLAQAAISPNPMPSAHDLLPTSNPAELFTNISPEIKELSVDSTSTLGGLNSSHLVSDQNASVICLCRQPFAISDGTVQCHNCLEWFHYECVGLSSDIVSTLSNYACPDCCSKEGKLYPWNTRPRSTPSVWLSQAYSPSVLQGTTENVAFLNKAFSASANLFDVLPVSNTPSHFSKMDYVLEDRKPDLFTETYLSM

T1: Swc2 (S. pombe) (UniProt Q9P790)
T1 sequence: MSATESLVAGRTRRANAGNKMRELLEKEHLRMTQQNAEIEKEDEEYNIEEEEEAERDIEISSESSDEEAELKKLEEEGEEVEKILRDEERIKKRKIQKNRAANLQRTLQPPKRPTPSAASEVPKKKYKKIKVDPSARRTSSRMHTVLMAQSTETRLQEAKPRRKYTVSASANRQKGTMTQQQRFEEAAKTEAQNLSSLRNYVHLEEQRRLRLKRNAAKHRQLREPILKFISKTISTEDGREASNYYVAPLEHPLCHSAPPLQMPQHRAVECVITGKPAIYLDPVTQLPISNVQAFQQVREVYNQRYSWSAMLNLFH

T2: Swc4 (S. pombe) (UniProt O14308)
T2 sequence: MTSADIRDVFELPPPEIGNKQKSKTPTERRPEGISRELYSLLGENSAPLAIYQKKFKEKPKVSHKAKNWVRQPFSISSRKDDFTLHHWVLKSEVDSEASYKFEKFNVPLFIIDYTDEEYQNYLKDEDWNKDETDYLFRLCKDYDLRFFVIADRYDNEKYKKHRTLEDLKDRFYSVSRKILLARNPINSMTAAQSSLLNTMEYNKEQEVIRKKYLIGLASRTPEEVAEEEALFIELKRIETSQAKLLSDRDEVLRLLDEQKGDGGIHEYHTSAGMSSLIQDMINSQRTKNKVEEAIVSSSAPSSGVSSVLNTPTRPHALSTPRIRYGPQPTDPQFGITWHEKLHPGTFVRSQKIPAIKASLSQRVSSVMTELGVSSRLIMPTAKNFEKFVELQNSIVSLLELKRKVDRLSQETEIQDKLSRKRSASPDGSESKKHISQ

T3: Swr1 (catalytic subunit of the Swr1 complex) (S. pombe) (UniProt O13682)
T3 sequence: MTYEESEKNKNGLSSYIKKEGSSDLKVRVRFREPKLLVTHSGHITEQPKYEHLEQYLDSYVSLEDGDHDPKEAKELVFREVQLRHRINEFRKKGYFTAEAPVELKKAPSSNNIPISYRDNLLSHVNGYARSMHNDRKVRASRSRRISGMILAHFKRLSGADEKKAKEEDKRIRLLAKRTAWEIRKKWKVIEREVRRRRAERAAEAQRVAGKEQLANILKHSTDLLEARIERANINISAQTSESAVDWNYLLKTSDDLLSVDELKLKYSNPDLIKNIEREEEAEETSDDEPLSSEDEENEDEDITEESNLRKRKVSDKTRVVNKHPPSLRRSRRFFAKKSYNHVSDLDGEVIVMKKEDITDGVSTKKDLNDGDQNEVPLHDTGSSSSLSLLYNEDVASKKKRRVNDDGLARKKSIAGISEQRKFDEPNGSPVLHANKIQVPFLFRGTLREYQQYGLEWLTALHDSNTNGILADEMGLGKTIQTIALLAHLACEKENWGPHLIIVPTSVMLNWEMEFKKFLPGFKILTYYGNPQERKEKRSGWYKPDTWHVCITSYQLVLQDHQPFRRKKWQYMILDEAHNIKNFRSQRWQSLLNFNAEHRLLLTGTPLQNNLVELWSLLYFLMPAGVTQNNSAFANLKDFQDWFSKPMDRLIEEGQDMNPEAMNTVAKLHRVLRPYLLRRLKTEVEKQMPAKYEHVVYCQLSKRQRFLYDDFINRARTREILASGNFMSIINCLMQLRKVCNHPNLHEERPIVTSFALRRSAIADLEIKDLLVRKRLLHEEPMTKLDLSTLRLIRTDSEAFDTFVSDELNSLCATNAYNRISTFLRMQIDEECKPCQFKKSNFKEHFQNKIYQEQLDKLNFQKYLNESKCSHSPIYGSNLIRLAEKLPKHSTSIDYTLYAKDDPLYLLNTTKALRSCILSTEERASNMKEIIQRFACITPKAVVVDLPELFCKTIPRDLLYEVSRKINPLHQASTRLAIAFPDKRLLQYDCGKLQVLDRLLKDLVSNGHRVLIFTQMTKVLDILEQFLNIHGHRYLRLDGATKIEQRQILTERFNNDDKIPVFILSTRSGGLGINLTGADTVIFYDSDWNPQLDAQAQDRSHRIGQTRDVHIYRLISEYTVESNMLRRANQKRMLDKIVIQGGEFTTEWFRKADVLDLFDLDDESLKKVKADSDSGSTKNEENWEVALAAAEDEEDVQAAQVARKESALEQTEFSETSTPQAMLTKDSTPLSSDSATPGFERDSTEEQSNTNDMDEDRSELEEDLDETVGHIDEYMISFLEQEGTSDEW

T4: Yaf9 (S. pombe) (UniProt Q10319)
T4 sequence: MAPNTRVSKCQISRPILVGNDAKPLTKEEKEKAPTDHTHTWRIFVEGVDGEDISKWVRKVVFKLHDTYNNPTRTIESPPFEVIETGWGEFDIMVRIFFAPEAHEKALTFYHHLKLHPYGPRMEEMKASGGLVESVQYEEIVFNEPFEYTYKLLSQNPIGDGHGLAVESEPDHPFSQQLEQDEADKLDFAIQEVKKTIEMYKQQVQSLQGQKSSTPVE

B1: Swr1 (catalytic subunit of the Swr1 complex) (protein, UniProt O13682 1-1288)
chain: T3 sequence
B2: Yaf9 (protein, UniProt Q10319 1-217)
chain: T4 sequence
B3: Swc4 (protein, UniProt O14308 1-437)
chain: T2 sequence
B4: Swc2 (protein, UniProt Q9P790 1-316)
chain: T1 sequence
B5: Swc5 (protein, UniProt O74897 1-215)
chain: MTEKLIDFGLEQEEEDTEFVPGDSTDTESSFSDADSSEEEFVEEKEASQVQSTKSKIATSESEDVTLKNIAKKNKRERNDKLIPQQSNESEAIEKPVQSTTEVELKTNELAESNSSVAVEGDENSYAETPKKKHSLIRKRRKSPLDSSSAQKVLKKNKLNTLEQAQQNWSKYIKEQDIQDELRIANKDGYVERQEFLAKTRAAHEEKIREMKKLP
B6: Nap1 histone chaperone (protein, UniProt O59797 1-393)
chain: MVENVNINNKRAGKMSAAPTPHNTPSGTSAPNFGAKAPQVNTIDEGDENLEAIDGKLGSLLHLTSEGVSELPEAVQRRISGLRGLQKRYSDLESQFQKELFELEKAYAKKYAPIFKRRSEVVRGADEPTEEEIKKGEAADENEKKEPTSSESKKQEGGDDTKGIPEFWLTAMKNVLSLSEMITPEDEGALSHLVDIRISYMEKPGFKLEFEFAENPFFTNKILTKTYYYMEESGPSNVFLYDHAEGDKVDWKENADLTVRTVTKKQRNKNTKQTRVVKVSVPRDSFFNFFNPPTPPSEEDEESESPELDELLELDYQIGEDFKEKLIPRAVEWFTGEALALENYDGFSDLDVEEDEDDVESSSNEEVSDSDEEDSDSKHTAHGQQNAAECRQQ

These binders were tested against Msc1 (JmjC-domain protein of the Lid/Jarid1 family) (S. pombe) (UniProt Q9UT79) (assay: affinity purification with mass spectrometry; TAP-tag purification from S. pombe strains with TAP-tagged baits (Yaf9, Swc4, Swc2, Msc1, Swr1, H2A.Z/Pht1), LC-MS/MS and Coomassie stained PAGE gels; H2A.Z-TAP also in msc1Δ and swr1Δ strains; protocol in ref. 47).

Question: How did the binding turn out when B1 was run?
Answer: binds

Question: How did the binding turn out when B2 was run?
Answer: binds

Question: With B3 as the binder, how does the binding read?
Answer: binds

Question: How did the binding turn out when B4 was run?
Answer: binds

Question: B5 was tested. Which binding did it give?
Answer: binds

Question: With B6 as the binder, how does the binding read?
Answer: no binding

These binders were tested against T1, Swc2 (S. pombe) in the same assay as above.

Question: With B1 as the binder, how does the binding read?
Answer: binds

Question: For B2, which binding is on record?
Answer: binds

Question: B3 was tested. Which binding did it give?
Answer: binds

Question: For B6, which binding is on record?
Answer: no binding

Each binder was assayed against T2, Swc4 (S. pombe) in the same assay as above.

Question: Which binding does the source give for B1 here?
Answer: binds

Question: For B2, which binding is on record?
Answer: binds

Question: B4 was tested. Which binding did it give?
Answer: binds

Question: How did the binding turn out when B6 was run?
Answer: no binding

What follows are binders tested against T3, Swr1 (catalytic subunit of the Swr1 complex) (S. pombe) in the same assay as above.

Question: B6 was tested. Which binding did it give?
Answer: no binding

Each binder was assayed against T4, Yaf9 (S. pombe) in the same assay as above.

Question: How did the binding turn out when B1 was run?
Answer: binds

Question: For B3, which binding is on record?
Answer: binds

Question: For B4, which binding is on record?
Answer: binds

Question: For B6, which binding is on record?
Answer: no binding
